Reference: patent US8916682B2, “Lipid peptide and hydrogel” (Nissan Chemical Industries, Ltd., priority 2007, dated 2014)
Not every detail of the peptide structures is certain; ends, links or a residue may be inferred. Some results were stated once for a whole list of compounds, not compound by compound. Where a SMILES comes first, the peptide text is derived from it. The star is where a group is joined. Docosanoyl = CCCCCCCCCCCCCCCCCCCCCC(=O)*; Palmitoyl = CCCCCCCCCCCCCCCC(=O)*; Lauroyl = CCCCCCCCCCCC(=O)*

Columns and labels:
Type in all cases: physicochemical
[1] = Evaluation of hydrogelation of lipid peptide with pure water; design: key to Gelled: a gelled lipid peptide is indicated by “A”; a lipid peptide which was not gelled is indicated by “B”; a lipid peptide which was not evaluated is indicated by “-”; conditions: for hydrogelation in pure water: concentration of 0.1% by mass; for Gelled: heated to 90° C. or more then cooled, tube inversion; for pH: room temperature
[2] = Evaluation of hydrogelation of lipid peptide by phosphate buffer solution; design: key to Gelled: a gelled lipid peptide is indicated by “A”; a lipid peptide which was not gelled is indicated by “B”; a lipid peptide which was not evaluated is indicated by “-”; conditions: for hydrogelation in the alkaline range: concentration of 0.5% by mass; for pH: room temperature
[3] = Evaluation of hydrogelation of lipid peptide by metal ion aqueous solution; conditions: five 50 mM metal ion aqueous solutions (NaCl, MgCl2, CaCl2, NiCl2, FeCl3), lipid peptide 0.2% by mass
[4] = Evaluation of hydrogelation of lipid peptide with ethanol solution; conditions: ethanol/water, ethanol 10, 30 and 50% by volume, lipid peptide 0.1% by mass
[5] = Evaluation of hydrogelation of lipid peptide in low concentration; conditions: 1M hydrochloric acid (pH=0), 50 mM phosphate buffer (pH=7.5), 50 mM sodium citrate (pH=8.4), 20% by volume ethanol; lipid peptide 0.03% by mass
[6] = phosphate buffer pH = 0, 0.5% (w/v)
[7] = phosphate buffer pH = 2, 0.5% (w/v)
[8] = phosphate buffer pH = 7.2, 0.1% (w/v)
[9] = phosphate buffer pH = 7.2, 0.5% (w/v)
[10] = phosphate buffer pH = 11, 0.1% (w/v)
[11] = phosphate buffer pH = 11, 0.5% (w/v)
[12] = phosphate buffer pH = 14, 0.5% (w/v)

| Compound | hydrogelation in pure water [1] | Gelled ([1]; lipid peptide 0.1% (w/v)) | pH ([1]; lipid peptide 0.1% (w/v)) | Gelled ([1]; lipid peptide 0.5% (w/v)) | pH ([1]; lipid peptide 0.5% (w/v)) | hydrogelation in the alkaline range [2] | Gelled [2, 6] | pH [2, 6] | Gelled [2, 7] | Gelled [2, 8] | pH [2, 8] | Gelled [2, 9] | pH [2, 9] | pH [2, 10] | Gelled [2, 11] | pH [2, 11] | pH [2, 12] | other results |
| --- | --- | --- | --- | --- | --- | --- | --- | --- | --- | --- | --- | --- | --- | --- | --- | --- | --- | --- |
| CCCCCCCCCCCCCCCC(=O)NCC(=O)NCC(=O)N[C@H](C(=O)N[C@@H](Cc1c[nH]cn1)C(=O)O)[C@@H](C)CC [Example 12, N-palmitoyl-Gly-Gly-Ile-His] (Palmitoyl-GGIH-OH) | gelled | A | 7.7 | A | 7.2 | gelled | A | 0.5 | A | A | 7.5 | A | 7.3 | 10.2 | A | 9.1 | 12.7 | Gelled [2, 10]: A |
| CCCCCCCCCCCC(=O)NCC(=O)NCC(=O)NCC(=O)N[C@@H](Cc1c[nH]cn1)C(=O)O [Example 10, N-lauroyl-Gly-Gly-Gly-His] (Lauroyl-GGGH-OH) | gelled | A | 7.7 | A | 8.0 | gelled | A | 0.5 | A | A | 7.4 | A | 7.3 | 10.0 | A | 9.1 | 12.7 | – |
| CCCCCCCCCCCCCCCC(=O)NCC(=O)NCC(=O)NCC(=O)N[C@@H](Cc1c[nH]cn1)C(=O)O [Example 1, N-palmitoyl-Gly-Gly-Gly-His] (Palmitoyl-GGGH-OH) | – | – | – | – | – | – | – | – | – | – | – | – | – | – | – | – | – | hydrogelation in metal ion aqueous solutions [3]: gelled; hydrogelation in ethanol aqueous solutions [4]: gelled; hydrogelation in low concentration [5]: gelled |
| CCCCCCCCCCCCCCCC(=O)NCC(=O)N[C@H](C(=O)NCC(=O)N[C@@H](Cc1c[nH]cn1)C(=O)O)C(C)C [Example 11, N-palmitoyl-Gly-Val-Gly-His] (Palmitoyl-GVGH-OH) | – | – | – | – | – | gelled | A | 0.5 | – | – | 7.4 | A | 7.3 | 10.3 | A | 9.1 | 12.7 | Gelled [2, 12]: A |
| CCCCCCCCCCCCCCCCCCCCCC(=O)NCC(=O)NCC(=O)NCC(=O)N[C@@H](Cc1c[nH]cn1)C(=O)O [Example 17, N-behenoyl-Gly-Gly-Gly-His] (Docosanoyl-GGGH-OH) | gelled | A | 7.4 | A | 7.5 | – | – | – | A | – | – | – | – | 10.2 | – | 9.1 | – | – |
| CCCCCCCCCCCCCCCC(=O)NCC(=O)NCC(=O)NCC(=O)N[C@@H](CCCCN)C(=O)O [Example 16, N-palmitoyl-Gly-Gly-Gly-Lys] (Palmitoyl-GGGK-OH) | gelled | A | 7.3 | A | 7.2 | gelled | A | 0.5 | A | A | 7.6 | A | 7.3 | 10.3 | A | 9.1 | – | Gelled [2, 10]: A |
| CCCCCCCCCCCCCCCC(=O)NCC(=O)NCC(=O)NCC(=O)N[C@@H](CCCNC(=N)N)C(=O)O [Example 14, N-palmitoyl-Gly-Gly-Gly-Arg] (Palmitoyl-GGGR-OH) | – | – | – | – | – | – | A | 0.5 | A | – | 7.4 | A | 7.3 | 10.4 | – | 9.1 | 12.7 | – |
| CCCCCCCCCCCCCCCC(=O)NCC(=O)NCC(=O)NCC(=O)N[C@@H](CCC(N)=O)C(=O)O [Example 15, N-palmitoyl-Gly-Gly-Gly-Gln] (Palmitoyl-GGGQ-OH) | gelled | A | 8.1 | A | 8.2 | gelled | – | 0.4 | A | – | 7.5 | A | 7.3 | 10.4 | A | 9.1 | 12.7 | – |
| CCCCCCCCCCCCCCCC(=O)N[C@@H](C)C(=O)NCC(=O)NCC(=O)N[C@@H](Cc1c[nH]cn1)C(=O)O [Example 13, N-palmitoyl-Ala-Gly-Gly-His] (Palmitoyl-AGGH-OH) | gelled | A | 8.2 | A | 8.5 | – | A | 0.5 | A | A | 7.5 | A | 7.3 | 10.0 | – | 9.1 | 12.7 | – |
